Experimental data as given in PubChem BioAssay AID1688 (National Center for Advancing Translational Sciences (NCATS), 2009).
Screen size: about 220,000 compounds; about 2,400 (1.1%) were called active. The inconclusive results got no clear call from the source; some entries with a clear call stand among them for comparison. Calls come from the whole dose curve; as a rule, active = well fitted inhibition curve with a large enough effect; inconclusive = small, poorly fitted or top-dose-only effect, or effect the other way; inactive = no such curve, though single readings can be large or run the other way. A potency beside an inconclusive call is a rough fit, not a confirmed value.

experiment: qHTS Multiplex Assay to Identify Dual Action Probes in a Cell Model of Huntington: Aggregate Formation (GFP); conditions: PC12 HttQ103-GFP aggregates, Acumen cytometry, 40 h; series mostly up to 46.1 µM; note: nearly all actives have a fitted effect of over 60% in size
Outline: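 Steps: seed 1500 PC12 HTTQ103-GFP cells/well; add tebufenozide, 100 nM final; add compound titration; add ATPLite reagent; quantify GFP aggregates by laser scanning cytometry.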
Potency is the fitted concentration of half-maximal effect.

Compound | Potency
O=C(Cn1c(COc2ccccc2)nc2ccccc21)Nc1cccc(Cl)c1 | inconclusive: 3.55 µM [inhibitor, single point]
Cc1ccc(-c2noc(CCC(=O)NCCc3ccccc3Cl)n2)cc1 | inactive
CCC1CCCCN1C(=S)NCc1ccccc1 (centres undefined) | inconclusive: 5.62 µM [inhibitor, single point]
Cc1ccc(C(NC(=O)NC(C)c2ccccc2)C(Cl)(Cl)Cl)cc1F (centres undefined) | inconclusive: 15.8 µM [inhibitor, single point]
CC1(C)CC(=O)C2=C(C1)NC1=C(C(=O)c3ccccc31)C2c1ccc(Cl)cc1 (centres undefined) | inconclusive: 31.6 µM [inhibitor, single point]
C=CCc1cccc(/C=N/NC(=O)CNc2ccccc2)c1O | active: 11.2 µM
COc1ccc(C(=O)N2c3cc4c(cc3C(C)=CC2(C)C)OCO4)cc1 | active: 11.2 µM
Cc1onc(-c2ccccc2Cl)c1C(=O)N1CCN(c2ccccc2)CC1 | inconclusive: 1.26 µM [activator, single point]
O=C(NCc1cccnc1)C(=O)N/N=C/c1ccc([N+](=O)[O-])cc1 | inconclusive: 0.562 µM [activator, partial curve, poor fit]
O=C(Nc1cccc(C(F)(F)F)c1)c1cccnc1N1CCN(c2ccccc2)CC1 | inconclusive: 35.5 µM [inhibitor, single point]
COc1ccc(Nc2oc(COc3ccccc3F)nc2C#N)cc1 | inconclusive: 35.5 µM [activator, single point]
CCOC(=O)CSc1nc(C2CC2)cc(-c2ccc(Cl)cc2)c1C#N | inactive
CC(Sc1nnc2ccccn12)C(=O)Nc1ccc2c(c1)OCO2 (centres undefined) | inconclusive: 35.5 µM [activator, single point]
Cc1cc(C(=O)NC(CC(C)C)C(=O)O)cc(C)c1[N+](=O)[O-] (centres undefined) | inactive
O=S(=O)(c1ccc2c(c1)OCCO2)N1CCC(O)(c2ccc(Cl)cc2)CC1 | inconclusive: 35.5 µM [inhibitor, single point]
COc1cccc([C@@H]2Oc3ccc(OC)cc3C(=O)[C@H]2OC(=O)NCc2ccc3c(c2)OCO3)c1 | inconclusive: 11.2 µM [inhibitor, single point]
CS/C(=C\[N+](=O)[O-])Nc1ccc(F)cc1 | inconclusive: 5.62 µM [activator, single point]
CCn1c(CCCc2ccc(OC)c(C)c2)n[nH]c1=S | inconclusive: 35.5 µM [activator, partial curve, poor fit]
O=c1c2ccccc2nc2n1CCN2Cc1ccc(Cl)cc1 | inconclusive: 20 µM [inhibitor, single point]
COc1ccc(NS(=O)(=O)c2ccc(N3CCCC3=O)cc2)cn1 | inconclusive: 3.55 µM [inhibitor, partial curve]
CCc1cccc(CC)c1N1C(=O)c2cc(N3CCOCC3)c([N+](=O)[O-])cc2C1=O | inconclusive: 3.98 µM [inhibitor, single point]
COc1ccc(C(=O)C2C(c3ccc(-c4ccccc4[N+](=O)[O-])o3)NC(=O)NC2(O)C(F)(F)F)cc1 (centres undefined) | inconclusive: 12.6 µM [activator, partial curve]

Rewritten comma-delimited: entries from further up.
Compound,Potency
O=C(Cn1c(COc2ccccc2)nc2ccccc21)Nc1cccc(Cl)c1,"inconclusive: 3.55 µM [inhibitor, single point]"
Cc1ccc(-c2noc(CCC(=O)NCCc3ccccc3Cl)n2)cc1,inactive
COc1ccc(C(=O)N2c3cc4c(cc3C(C)=CC2(C)C)OCO4)cc1,active: 11.2 µM
O=C(NCc1cccnc1)C(=O)N/N=C/c1ccc([N+](=O)[O-])cc1,"inconclusive: 0.562 µM [activator, partial curve, poor fit]"
COc1ccc(Nc2oc(COc3ccccc3F)nc2C#N)cc1,"inconclusive: 35.5 µM [activator, single point]"
CC(Sc1nnc2ccccn12)C(=O)Nc1ccc2c(c1)OCO2 (centres undefined),"inconclusive: 35.5 µM [activator, single point]"
COc1cccc([C@@H]2Oc3ccc(OC)cc3C(=O)[C@H]2OC(=O)NCc2ccc3c(c2)OCO3)c1,"inconclusive: 11.2 µM [inhibitor, single point]"
CCn1c(CCCc2ccc(OC)c(C)c2)n[nH]c1=S,"inconclusive: 35.5 µM [activator, partial curve, poor fit]"
O=c1c2ccccc2nc2n1CCN2Cc1ccc(Cl)cc1,"inconclusive: 20 µM [inhibitor, single point]"
CCc1cccc(CC)c1N1C(=O)c2cc(N3CCOCC3)c([N+](=O)[O-])cc2C1=O,"inconclusive: 3.98 µM [inhibitor, single point]"
COc1ccc(C(=O)C2C(c3ccc(-c4ccccc4[N+](=O)[O-])o3)NC(=O)NC2(O)C(F)(F)F)cc1 (centres undefined),"inconclusive: 12.6 µM [activator, partial curve]"

Next results:

Compound | Potency
COc1ccc(-n2nnnc2SCC#CCO)cc1 | inconclusive: 10 µM [inhibitor, partial curve]
COC(=O)c1ccc(NC(=O)C23CC4CC(C2)CC(n2cnc(Cl)n2)(C4)C3)cc1 | inconclusive: 1.58 µM [activator, partial curve]
CC(=O)c1cc(-c2ccccc2)n(CC(=O)Nc2ccc(C)c(C)c2)c1C | inactive
CCOc1c2ccc(C(=O)NCc3ccco3)cc2nn1CC | inconclusive: 10 µM [activator, partial curve]
COC(=O)C1CCN(Cc2ccc(C)cc2)CC1 | inactive
COc1cccc(-n2cnc3cccc(N)c32)c1 | inconclusive: 0.501 µM [inhibitor, partial curve]
COc1ccccc1CNC(=O)c1ccc(OCc2c(C)noc2C)c(OC)c1 | inconclusive: 4.47 µM [activator, partial curve]
CN(C)S(=O)(=O)n1ccnc1 | inconclusive: 0.562 µM [inhibitor, full curve, poor fit]
Cc1cc(C)nc(Sc2nc(Cl)nc(N(c3ccccc3)c3ccccc3)n2)n1 | inconclusive: 5.62 µM [activator, single point]
Cc1ccc(C)c(C(=O)COc2ccccc2[N+](=O)[O-])c1 | inactive
CCn1c(SCCC(C)C)nnc1-c1c[nH]c2ccccc12 | inconclusive: 14.1 µM [inhibitor, single point]
COc1ccc2[nH]c(=O)c(C(c3nnnn3C(C)(C)C)N(Cc3ccco3)CC3CCCO3)cc2c1 (centres undefined) | inactive
O=C(CC1Nc2ccccc2NC1=O)NC1CCCCC1 (centres undefined) | inconclusive: 10 µM [inhibitor, partial curve, poor fit]
Cc1ccc(NC(=O)c2oc(=O)c3ccccc3c2-c2ccccc2)c(C)c1 | inconclusive: 1 µM [inhibitor, single point]
O=C(Nc1nnc(-c2cccnc2)o1)c1cccc([N+](=O)[O-])c1 | inconclusive: 22.4 µM [inhibitor, partial curve]
O=C(O)c1[nH]c2ccccc2c1CC(=O)N1CCOCC1 | inconclusive: 14.1 µM [activator, single point]
COc1ccc2cc3c(N)nn(C(=O)c4ccccc4Cl)c3nc2c1 | active: 0.355 µM
CCOc1ccc(NC2C=CS(=O)(=O)C2)cc1 (centres undefined) | inconclusive: 1 µM [activator, partial curve]
O=c1nc2n(c3ccccc13)Cc1ccccc1-2 | inactive
O=C(c1ccccc1)c1c2c(cc3sc4ccccc4[n+]13)-c1cccc3cccc-2c13 | active: 7.94 µM
Cc1ccc(-n2c(C)nc3c(cnn3-c3ccc(C)c(C)c3)c2=O)cc1C | inconclusive: 31.6 µM [inhibitor, single point]
CCOc1ccc(N(CC(=O)Nc2cccc(Cl)c2)S(=O)(=O)c2c(C)noc2C)cc1 | active: 22.4 µM
